Experimental findings from the supplement of paper PMC10849652 are described below.

Sequences of proteins named here, by UniProt entry; tags and fusion partners are left off. A change or cut given only in a name is not applied to a line headed by its entry.
UniProt Q86VQ1: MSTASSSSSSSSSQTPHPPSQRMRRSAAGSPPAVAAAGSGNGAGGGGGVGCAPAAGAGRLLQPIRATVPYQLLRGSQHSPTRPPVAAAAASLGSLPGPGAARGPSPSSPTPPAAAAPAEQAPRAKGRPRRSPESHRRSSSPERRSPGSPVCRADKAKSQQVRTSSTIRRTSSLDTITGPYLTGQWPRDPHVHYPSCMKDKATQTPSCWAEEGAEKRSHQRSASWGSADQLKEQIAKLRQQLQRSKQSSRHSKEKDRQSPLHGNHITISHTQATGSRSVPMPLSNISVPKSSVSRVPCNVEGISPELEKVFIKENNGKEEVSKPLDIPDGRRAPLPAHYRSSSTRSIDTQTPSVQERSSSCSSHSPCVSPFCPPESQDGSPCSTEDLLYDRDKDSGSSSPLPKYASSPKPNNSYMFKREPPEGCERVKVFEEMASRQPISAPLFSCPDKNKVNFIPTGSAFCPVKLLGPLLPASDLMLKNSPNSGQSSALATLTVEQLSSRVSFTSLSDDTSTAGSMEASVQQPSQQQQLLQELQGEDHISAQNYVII
UniProt Q9P2T1: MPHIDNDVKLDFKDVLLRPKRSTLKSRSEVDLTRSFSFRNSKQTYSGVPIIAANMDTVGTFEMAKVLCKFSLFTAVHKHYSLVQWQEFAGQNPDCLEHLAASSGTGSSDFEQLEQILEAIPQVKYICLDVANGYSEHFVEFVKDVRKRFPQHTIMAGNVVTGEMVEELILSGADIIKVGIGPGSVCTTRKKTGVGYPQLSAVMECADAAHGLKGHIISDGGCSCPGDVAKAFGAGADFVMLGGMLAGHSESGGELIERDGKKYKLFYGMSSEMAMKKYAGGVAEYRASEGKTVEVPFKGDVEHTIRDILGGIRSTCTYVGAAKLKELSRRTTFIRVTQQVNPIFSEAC
UniProt Q04760: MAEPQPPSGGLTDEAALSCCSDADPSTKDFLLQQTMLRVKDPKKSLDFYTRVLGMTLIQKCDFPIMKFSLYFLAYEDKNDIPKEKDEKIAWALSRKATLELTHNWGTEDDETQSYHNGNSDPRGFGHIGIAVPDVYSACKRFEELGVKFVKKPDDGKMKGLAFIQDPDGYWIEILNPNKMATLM
UniProt Q8IVV7: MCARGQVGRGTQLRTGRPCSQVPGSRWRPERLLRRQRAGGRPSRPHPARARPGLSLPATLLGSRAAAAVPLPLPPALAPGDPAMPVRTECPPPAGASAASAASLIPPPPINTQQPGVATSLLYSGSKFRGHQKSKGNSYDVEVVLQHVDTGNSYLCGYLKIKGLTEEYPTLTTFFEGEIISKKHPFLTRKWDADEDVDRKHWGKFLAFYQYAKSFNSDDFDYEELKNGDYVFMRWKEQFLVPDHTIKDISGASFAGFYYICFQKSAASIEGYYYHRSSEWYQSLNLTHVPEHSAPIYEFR
UniProt Q5T7V8: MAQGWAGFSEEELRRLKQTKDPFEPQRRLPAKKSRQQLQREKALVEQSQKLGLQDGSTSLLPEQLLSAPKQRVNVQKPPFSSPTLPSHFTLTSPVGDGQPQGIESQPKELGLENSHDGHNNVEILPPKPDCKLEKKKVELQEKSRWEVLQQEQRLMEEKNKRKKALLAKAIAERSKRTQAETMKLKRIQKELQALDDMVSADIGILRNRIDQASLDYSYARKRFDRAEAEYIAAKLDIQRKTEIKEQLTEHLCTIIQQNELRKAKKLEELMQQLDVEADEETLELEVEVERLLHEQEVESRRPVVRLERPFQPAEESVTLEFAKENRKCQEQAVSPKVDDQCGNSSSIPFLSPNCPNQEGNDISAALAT
UniProt Q9H4G4: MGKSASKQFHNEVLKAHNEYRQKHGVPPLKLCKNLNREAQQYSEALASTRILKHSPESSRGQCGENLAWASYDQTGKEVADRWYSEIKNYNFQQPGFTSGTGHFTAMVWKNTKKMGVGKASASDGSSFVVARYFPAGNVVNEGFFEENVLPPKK
UniProt Q9NS18: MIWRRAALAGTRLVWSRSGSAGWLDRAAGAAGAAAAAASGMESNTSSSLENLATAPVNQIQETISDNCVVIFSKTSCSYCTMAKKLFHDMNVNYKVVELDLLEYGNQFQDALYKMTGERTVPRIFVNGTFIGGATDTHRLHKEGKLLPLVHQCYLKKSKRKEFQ
UniProt Q6Y7W6: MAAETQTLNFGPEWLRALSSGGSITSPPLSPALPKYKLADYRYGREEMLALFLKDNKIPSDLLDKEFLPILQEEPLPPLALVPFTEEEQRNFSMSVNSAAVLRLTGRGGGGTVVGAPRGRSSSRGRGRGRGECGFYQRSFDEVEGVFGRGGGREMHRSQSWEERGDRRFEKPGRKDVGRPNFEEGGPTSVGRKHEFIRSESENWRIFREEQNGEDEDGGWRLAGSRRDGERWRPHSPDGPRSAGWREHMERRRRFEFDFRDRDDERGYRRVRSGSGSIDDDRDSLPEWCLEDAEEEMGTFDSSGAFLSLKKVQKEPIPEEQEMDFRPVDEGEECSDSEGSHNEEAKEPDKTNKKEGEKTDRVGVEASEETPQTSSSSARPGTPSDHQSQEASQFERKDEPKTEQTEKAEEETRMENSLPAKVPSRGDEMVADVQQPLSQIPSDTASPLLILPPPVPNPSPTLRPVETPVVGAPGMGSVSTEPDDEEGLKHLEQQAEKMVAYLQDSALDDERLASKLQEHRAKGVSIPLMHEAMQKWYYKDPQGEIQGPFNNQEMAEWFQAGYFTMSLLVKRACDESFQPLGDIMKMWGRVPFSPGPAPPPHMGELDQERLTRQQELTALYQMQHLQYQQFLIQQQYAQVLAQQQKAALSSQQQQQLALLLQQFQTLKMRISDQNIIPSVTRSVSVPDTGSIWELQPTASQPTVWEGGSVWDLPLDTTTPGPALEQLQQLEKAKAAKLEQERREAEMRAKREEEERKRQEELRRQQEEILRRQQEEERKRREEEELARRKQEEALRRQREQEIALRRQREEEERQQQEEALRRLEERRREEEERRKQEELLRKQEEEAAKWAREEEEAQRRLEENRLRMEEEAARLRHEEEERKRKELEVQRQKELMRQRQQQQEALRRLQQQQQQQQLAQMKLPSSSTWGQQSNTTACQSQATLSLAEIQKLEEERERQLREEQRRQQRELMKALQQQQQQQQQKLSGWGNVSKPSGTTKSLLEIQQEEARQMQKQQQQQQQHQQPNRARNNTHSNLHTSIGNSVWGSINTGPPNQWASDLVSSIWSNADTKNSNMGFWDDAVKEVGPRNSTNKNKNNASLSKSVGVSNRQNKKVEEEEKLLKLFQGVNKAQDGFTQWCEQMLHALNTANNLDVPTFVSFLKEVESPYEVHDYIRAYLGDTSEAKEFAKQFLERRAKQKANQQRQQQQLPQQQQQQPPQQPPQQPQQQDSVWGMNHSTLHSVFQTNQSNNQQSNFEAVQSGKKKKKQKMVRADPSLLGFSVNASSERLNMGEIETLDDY
UniProt P13224: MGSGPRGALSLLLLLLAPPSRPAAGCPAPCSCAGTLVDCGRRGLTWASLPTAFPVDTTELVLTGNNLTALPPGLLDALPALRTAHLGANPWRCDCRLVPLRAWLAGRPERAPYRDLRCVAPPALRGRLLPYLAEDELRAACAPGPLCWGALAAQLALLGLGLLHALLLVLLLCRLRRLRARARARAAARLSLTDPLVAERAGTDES
UniProt P15104, whole entry, looked up: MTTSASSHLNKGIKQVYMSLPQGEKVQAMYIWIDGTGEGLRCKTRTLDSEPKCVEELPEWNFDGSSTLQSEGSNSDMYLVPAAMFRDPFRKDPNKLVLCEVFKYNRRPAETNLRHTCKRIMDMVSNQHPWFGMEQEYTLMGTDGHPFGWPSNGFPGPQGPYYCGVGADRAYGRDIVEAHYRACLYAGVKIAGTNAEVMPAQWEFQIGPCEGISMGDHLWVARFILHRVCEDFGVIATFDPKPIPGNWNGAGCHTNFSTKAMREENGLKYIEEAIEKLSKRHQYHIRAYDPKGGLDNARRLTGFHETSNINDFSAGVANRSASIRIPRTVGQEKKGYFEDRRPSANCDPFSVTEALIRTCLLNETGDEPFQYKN

Some of the results follow.

What all share (assay): log2 fold change, soluble protein after heating vs DMSO (PISA); higher = thermal stabilisation; K562 lysate, 10 uM; active = over 0.2 and 3.5 SD of the protein, either way, in both replicates (recomputed)
Compound in assay [1]: Cc1cn(-c2cc(NC(=O)c3ccc(C)c(Nc4nccc(-c5cccnc5)n4)c3)cc(C(F)(F)F)c2)cn1 [nilotinib]
Summed up: (§1)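 Following dounce homogenisation of K562 pellets in PBS pH 7.4 with 1 mM MgCl2, crude extract at 1 mg/mL protein was incubated for 30 min with 10 μM compound. Aliquots were then heated for 3 min over 48°C-58°C and pooled, NP-40 was added to 0.5% at 4°C, and soluble protein was recovered as the supernatant at 21,000xg for 90 min. Channel-sum-equalised TMTpro 16plex LC-MS/MS quantified this protein. Each value, from duplicates, is a log-two fold change in thermal stability relative to solvent controls.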

Compound in assay [2]: Cc1nc(Nc2n[nH]c3c2CN(C(=O)N[C@H](CN(C)C)c2ccccc2)C3(C)C)c2sccc2n1
Summed up:
as §1

Compound in assay [3]: Cc1nc(Nc2ncc(C(=O)Nc3c(C)cccc3Cl)s2)cc(N2CCN(CCO)CC2)n1 [dasatinib]
Summed up: as §1

Compound in assay [4]: Cc1ncc(-c2ccnc(Nc3ccc(S(C)(=O)=O)cc3)n2)n1C(C)C
Summed up:
as §1

Compound in assay [5]: Cn1cc(-c2ccc3c(c2)CCN3C(=O)Cc2cccc(C(F)(F)F)c2)c2c(N)ncnc21
Summed up: as §1

Compound in assay [6]: Cn1cc(CNCC2CCN(c3ncc(C(=O)NO)cn3)CC2)c2ccccc21 [quisinostat]
Summed up: as §1

Compound in assay [7]: Cn1cncc1[C@@](N)(c1ccc(Cl)cc1)c1ccc2c(c1)c(-c1cccc(Cl)c1)cc(=O)n2C [tipifarnib]
An outline of the steps: as §1

Compound in assay [8]: NC(=O)Nc1cc(-c2cccc(F)c2)sc1C(=O)N[C@H]1CCCNC1
An outline of the steps:
as §1

Compound in assay [9]: NC(=O)c1cnc(N[C@@H]2CCCC[C@@H]2N)nc1Nc1cccc(-n2nccn2)c1
An outline of the steps: as §1

Compound in assay [10]: NC1(c2ccc(-c3nc4ccn5c(=O)[nH]nc5c4cc3-c3ccccc3)cc2)CCC1
An outline of the steps:
as §1

Compound in assay [11]: NCC(=O)Nc1ccc(-n2nc(C(F)(F)F)cc2-c2ccc3c(ccc4ccccc43)c2)cc1
Summed up:
as §1

Compound in assay [12]: O=C(CCCCCCC(=O)Nc1ccccc1)NO [vorinostat]
Summed up: as §1

Compound in assay [13]: O=C(O)c1ccc2c(c1)nc(Nc1cccc(Cl)c1)c1ccncc12 [silmitasertib]
Summed up:
as §1

Compound in assay [14]: O=C1NC(=O)C(c2cnc3ccccn23)=C1c1cn2c3c(cc(F)cc13)CN(C(=O)N1CCCCC1)CC2
Summed up:
as §1

Compound in assay [15]: c1cn2cc(-c3ccc4cn[nH]c4c3)nc(Nc3ccc(N4CCOCC4)cc3)c2n1 [entospletinib]
An outline of the steps:
as §1

For the target GLCCI1 (UniProt Q86VQ1), the log2 fold change in [1] is inactive: 0.043; in assay [2], inactive: -0.075; in assay [3], inactive: 0.001; in [4] it was inactive: -0.029; in [5] it was inactive: 0.03; in assay [6], inactive: -0.049. Also, the log2 fold change in [7] was inactive: 0.01; in [8] it was inactive: 0.026; in assay [9], inactive: -0.003; in assay [10], inactive: 0.045; in assay [11], inactive: 0.064; in assay [12] it was inactive: 0.074. Further, the log2 fold change was inactive: -0.013 in [13], inactive: 0.003 in [14] and inactive: -0.028 in assay [15].

On to GMPR2 isoform 2 (UniProt Q9P2T1), for which the log2 fold change was inactive: 0.053 in assay [1]; inactive: 0.005 in [2]; inactive: 0.039 in assay [3]; inactive: 0.025 in [4]; inactive: 0.013 in assay [5]; inactive: 0.046 in assay [6]. The log2 fold change was inactive: -0.004 in assay [7]; inactive: -0.024 in assay [8]; inactive: 0.007 in [9]; inactive: 0.012 in [10]; inactive: 0.011 in [11]; inactive: 0.117 in assay [12]. Further, the log2 fold change in assay [13] is inactive: -0.009; in [14] it was inactive: 0.026; in [15], inactive: -0.012.

As for GLO1 (UniProt Q04760), the log2 fold change is inactive: 0.053 in [1]; inactive: -0.037 in [2]; inactive: -0.009 in assay [3]; inactive: -0.017 in assay [4]; inactive: -0.011 in assay [5]; inactive: -0.021 in [6]. The log2 fold change is inactive: -0.005 in [7]; inactive: -0.025 in assay [8]; inactive: 0.002 in assay [9]; inactive: 0.005 in assay [10]; inactive: -0.031 in assay [11]; inactive: 0.014 in [12]. The log2 fold change was inactive: 0.026 in assay [13], inactive: 0.035 in [14] and inactive: -0.025 in assay [15].

In the case of GID4 (UniProt Q8IVV7), the log2 fold change was inactive: 0.021 in [1]; inactive: 0.035 in assay [2]; inactive: 0.063 in assay [3]; inactive: 0.08 in assay [4]; inactive: 0 in assay [5]; inactive: 0.02 in [6]. For the same target, the log2 fold change in [7] is inactive: 0.001; in assay [8], inactive: 0.025; in [9] it was inactive: 0.016; in [10], inactive: 0.015; in [11], inactive: 0.063; in assay [12], inactive: -0.126. Further, the log2 fold change was inactive: 0.078 in assay [13], inactive: 0.008 in [14] and inactive: 0.073 in assay [15].

For the target GORAB (UniProt Q5T7V8), the log2 fold change in assay [1] is inactive: -0.096; in assay [2], inactive: 0.044; in assay [3], inactive: -0.004; in assay [4], inactive: 0.046; in [5] it was inactive: 0.032; in assay [6], inactive: 0.038. Besides, the log2 fold change was inactive: -0.057 in assay [7]; inactive: -0.035 in assay [8]; inactive: -0.02 in assay [9]; inactive: 0.021 in assay [10]; inactive: -0.081 in [11]; inactive: -0.039 in assay [12]. Also, the results for the log2 fold change in assay [13], in assay [14] and in [15] were inactive: -0.088, inactive: 0.006 and inactive: -0.02, respectively.

Consider GLIPR2 (UniProt Q9H4G4), for which the log2 fold change is inactive: -0.079 in assay [1]; inactive: 0.183 in assay [2]; inactive: -0.001 in [3]; inactive: 0.051 in assay [4]; inactive: 0.042 in assay [5]; inactive: 0.026 in [6]. For the same target, the log2 fold change is inactive: -0.056 in [7]; inactive: -0.018 in assay [8]; inactive: 0.02 in assay [9]; inactive: 0.057 in assay [10]; inactive: -0.069 in assay [11]; inactive: 0.023 in assay [12]. The figures for the log2 fold change in [13], in assay [14] and in assay [15] were inactive: -0.004, inactive: 0.108 and inactive: -0.091, respectively.

Turning to GLRX2 (UniProt Q9NS18), the log2 fold change in assay [1] is inactive: 0.051; in assay [2] it was inactive: -0.032; in [3], inactive: 0.031; in assay [4] it was inactive: 0.012; in assay [5] it was inactive: 0.038; in assay [6], inactive: -0.001. Also, the log2 fold change is inactive: -0.045 in assay [7]; inactive: -0.014 in [8]; inactive: -0.008 in assay [9]; inactive: 0.009 in [10]; inactive: -0.091 in [11]; inactive: 0.092 in assay [12]. Also, the log2 fold change in [13] is inactive: -0.031; in assay [14], inactive: -0.004; in [15], inactive: -0.032.

As to GIGYF2 (UniProt Q6Y7W6), the log2 fold change in assay [1] is inactive: 0.004; in assay [2], inactive: -0.03; in assay [3], inactive: 0.006; in assay [4], inactive: 0.007; in assay [5], inactive: 0.024; in [6], inactive: -0.011. Moreover, the log2 fold change in [7] was inactive: -0.09; in assay [8] it was inactive: 0.026; in assay [9], inactive: 0.007; in [10], inactive: -0.04; in assay [11], inactive: -0.001; in assay [12] it was active: -0.252. The log2 fold change was inactive: -0.007 in [13], inactive: -0.042 in assay [14] and inactive: 0.017 in [15].

Regarding GP1BB isoform 2 (UniProt P13224), the log2 fold change in [1] is inactive: 0.021; in assay [2], inactive: -0.027; in [3], inactive: 0.008; in [4], inactive: 0.032; in assay [5] it was inactive: 0.011; in assay [6] it was inactive: 0.03. For the same target, the log2 fold change in [7] was inactive: -0.061; in assay [8], inactive: -0.012; in assay [9], inactive: 0.027; in assay [10], inactive: 0.004; in assay [11], inactive: -0.017; in assay [12], inactive: 0.142. Besides, the log2 fold change is inactive: 0.016 in assay [13], inactive: -0.073 in assay [14] and inactive: -0.112 in assay [15].

Take GLUL (UniProt P15104): the log2 fold change in assay [1] was inactive: -0.008; in [2], inactive: -0.012; in assay [3], inactive: 0.054; in assay [4], inactive: -0.026; in assay [5], inactive: -0.002; in [6], inactive: 0.071. Moreover, the log2 fold change in assay [7] is inactive: 0.027; in [8], inactive: -0.032; in assay [9], inactive: 0.009; in [10], inactive: -0.003; in assay [11], inactive: 0.008; in assay [12], inactive: 0.13. Further, the log2 fold change was inactive: 0.006 in assay [13], inactive: -0.096 in assay [14] and inactive: 0.116 in [15].
